Assay [1] concerns the target Firefly luciferase (firefly) [luciferase: P08659]. Put plainly: cross-linking; 2 µM luciferase or LDH at 4 °C or heat shocked (45 °C or 55 °C) without or with HSPB1-3D or HSPB1-3D-GxG; DSS at varying concentrations, 5 min, room temperature; immunoblot for luciferase, LDH and HSPB1; both purified.
Assay [2] has the same target. Put plainly: dynamic light scattering; 2 µM luciferase or LDH with 20 µM HSPB1 or its mutants, incubated at 45 °C or 55 °C for 15 min in reaction buffer, then measured; both purified.
Assay [3] shares this target. The assay is described as follows: SEC; 2 µM luciferase (45 °C) or LDH (55 °C) heat shocked 15 min with 20 µM HSPB1 construct, or the HSPB1 construct heat shocked alone; analysed at the start (0 h) of the disaggregation reaction; Superose 12, reaction buffer, 4 °C; fractions detected by immunoblot; both purified.

By UniProt entry, the sequences of proteins in these tests, tags left out. Where a name states a change or a piece, a line headed by the entry shows the natural chain unless it says otherwise. Chains listed by the source or under a name are the forms on record and can include a tag or linker.
UniProt P04792: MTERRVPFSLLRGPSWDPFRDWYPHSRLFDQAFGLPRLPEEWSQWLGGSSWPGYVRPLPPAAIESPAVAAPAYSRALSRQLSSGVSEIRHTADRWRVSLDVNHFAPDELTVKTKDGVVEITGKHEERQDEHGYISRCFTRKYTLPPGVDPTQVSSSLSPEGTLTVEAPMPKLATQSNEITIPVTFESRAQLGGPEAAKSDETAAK
HSPB1-3D (P04792, form named): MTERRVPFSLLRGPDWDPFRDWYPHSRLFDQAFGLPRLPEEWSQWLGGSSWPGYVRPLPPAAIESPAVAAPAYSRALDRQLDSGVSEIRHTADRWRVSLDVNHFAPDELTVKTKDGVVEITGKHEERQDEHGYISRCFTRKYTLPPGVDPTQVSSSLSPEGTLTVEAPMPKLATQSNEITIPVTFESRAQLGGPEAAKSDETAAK
HSPB1-3D-GxG (P04792, form named): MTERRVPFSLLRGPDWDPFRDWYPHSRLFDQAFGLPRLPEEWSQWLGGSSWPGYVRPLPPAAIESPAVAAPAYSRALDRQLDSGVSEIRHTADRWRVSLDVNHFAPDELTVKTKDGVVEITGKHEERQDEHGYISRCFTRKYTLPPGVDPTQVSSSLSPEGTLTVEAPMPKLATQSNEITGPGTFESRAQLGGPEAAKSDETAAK

Results are given in words; binding and its absence hold for the method and conditions named. Some results given as binding are weak or reduced against the parent protein; the word gives no strength.

Among the data in article PMC8384840 are binding values, retold here.

Regarding HSPB1-3D (from UniProt P04792 1-205), the binding result in assay [1] and in assay [2] was “binds” each time.
Turning to “HSPB1-3D-GxG (from UniProt P04792 1-205)”, in assay [3], the binding result is recorded as “no binding (tested: 20 µM HSPB1-3D-GxG with 2 µM luciferase)”.
